Experimental data from paper PMC3973600.
No constants are given. Whether binding was seen depends on the method and setting. Some results given as binding are weak or reduced against the parent protein; the word gives no strength.

Target: T1, M. huakuii 7653R BacA protein (Mesorhizobium huakuii 7653R) (UniProt C0J8B6)
T1 sequence: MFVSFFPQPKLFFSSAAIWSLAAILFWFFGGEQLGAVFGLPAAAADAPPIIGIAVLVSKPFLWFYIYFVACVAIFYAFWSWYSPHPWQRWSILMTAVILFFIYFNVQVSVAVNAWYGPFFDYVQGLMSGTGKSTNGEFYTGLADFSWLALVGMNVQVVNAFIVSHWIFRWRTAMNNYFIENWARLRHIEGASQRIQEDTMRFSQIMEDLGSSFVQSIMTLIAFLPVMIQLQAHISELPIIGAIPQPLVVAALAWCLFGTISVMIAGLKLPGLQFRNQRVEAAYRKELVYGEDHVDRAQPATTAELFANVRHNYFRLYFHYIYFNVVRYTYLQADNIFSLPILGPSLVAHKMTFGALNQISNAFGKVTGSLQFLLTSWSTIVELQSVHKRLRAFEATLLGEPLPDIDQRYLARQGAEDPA
Assay: two-hybrid; bacterial two-hybrid system; 'in a parallel study', data not shown; no further details

binding: binds
B1: M. huakuii 7653R TypA protein (protein, UniProt A0ABZ0VYW2 1-609)
chain: MKLRNIAIIAHVDHGKTTLVDQLLKQSGSFRDNQRVAERAMDSNDLEKERGITILAKATSVDWKDTRINIVDTPGHADFGGEVERILSMVDSAIVLVDAAEGPMPQTKFVVGKALKVGLKPIVVINKIDRPDARHVEVVNEVFDLFAALDATDEQLDFPILYGSGRDGWVSENPEGPKDQQLAPLFDLVIKHVPAPTVHPGPFRMIGTILEANPFLGRIITGRIESGTLKANQAVKVLHHDGTQIETGRISKILAFRGLERQPIEEAQAGDIVAIAGLSKGTVADTFCDLAVTEALHAQPIDPPTVTMSFLVNDSPLAGTEGDKVTSRVIRDRLLREAEGNVALKIEESPDKDSFFVSGRGELQLAVLIETMRREGFEIAVSRPRVVMQKGENGELLEPVEEVVIDVDEEHAGVVVQKMSERKAEMVELRPSGGNRQRIVFHAPTRGLIGYQSELLTDTRGTAVMNRLFHAYEPYKGELPGRTNGVLISNEQGESVAYAMWNLEDRGPMVIDPGVKVYQGMIIGIHSRDNDLEVNVLKGKKLTNIRAAGKDEAVKLTPPIRMTLERALAWIQDDELVEVTPKTIRLRKLYLDPNERKRFEKSSKAVGAA
